PubChem BioAssay AID686937, Drosophila RNAi Screening Center – 2013
Test: 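Genes whose loss weakens secretory pathway function in fly cells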 (primary screen). System: Drosophila S2 cells expressing secreted horseradish peroxidase. Knock-down reagent: long dsRNA against Drosophila genes. Duration: about 5.5 days (5 days dsRNA, then 12 h reporter induction). Treatment: reporter expression induced after 5 days of dsRNA, read 12 h later; inducer not stated. Detection: 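Chemiluminescent measurement of peroxidase in the medium 12 h after reporter induction, following 5 days of dsRNA, given as a z-score per plate; higher means more secretion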. Reading the numbers: z-score: higher = more reporter secreted into medium.
In all, the deposit lists about 23,000 reagents; shown is a random part of those that have a named target and a result. 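Reduced-secretion tags in replicate 1 do not always agree with the z-scores; no criterion for assigning the tags was given.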 Reagent sequences are not shown. Not given: the amount of reagent.

Target gene	amplicon	z-score, replicate 1	z-score, replicate 2	z-score, replicate 3	z-score, replicate 4	phenotype, replicate 1
subdued	DRSC15137	0.31	0.18			
CG34167	DRSC01525	0.1	0.21			
CG7848	DRSC07050	0.11	0.14			
lncRNA:CR32385	DRSC22966	-0.05	-0.26			
CG13994	DRSC02326	0.21	0.12			
CG32512	DRSC20519	0.45	-0.23	0.17	0.39	
CG32512	DRSC20551	-0.61	-0.04			
CG32512	DRSC21401	1.11	0.3			
CG7974	DRSC08607	-1.61	-0.6			reduced secretion
CG7290	DRSC10800	0.3	0.59			
CG17681	DRSC02632	0.36	0.2			
Reg-5	DRSC04647	0.49	0.29			
GILT3	DRSC14672	-0.58	0.01			
Tim13	DRSC09848	0.3	0.28			
Mppe	DRSC07296	0.25	0.17			
Cpr62Bc	DRSC08545	0.34	0.34			
CG14106	DRSC10109	0.26	0.19			
axo	DRSC08116	-1.34	0.08			
axo	DRSC08324	0.6	0.46			
axo	DRSC08326	-2.79	-0.68			reduced secretion
axo	DRSC21337	0.41	-0.14			
CG2065	DRSC06813	0.3	0.53			
CG2065	DRSC21328	2.23	1.87			
Myd88	DRSC06815	0.05	0.28			
MFS12	DRSC07268	0.46	0.48			
CG8369	DRSC16413	0.11	-0.71			
CG8160	DRSC07086	0.09	0.42	0.49	0.24	
CG8160	DRSC21434	0.23	-0.57			
Ino80	DRSC14760	0.18	0.18			
Ino80	DRSC15333	0.45	0.57			
Ino80	DRSC15501	0.32	0.32			
CG3270	DRSC04988	0.03	0.09			
ush	DRSC00843	-0.06	0.06			
Alp1	DRSC11781	0.21	0.36			
CG43341	DRSC05055	0.93				
CG7882	DRSC04899	0.43	0.41			
CG18823	DRSC18168	0.42	0.41			
CtBP	DRSC16617	0.04	-0.06			
ZnT63C	DRSC08032	0.86	0.29			
ZnT63C	DRSC08033	0.29	-0.16			
ZnT63C	DRSC08519	0.32	0.45			
ZnT63C	DRSC21989	6.69	3.4			
Lsp1alpha	DRSC20258	0.07	-0.14			
CG9799	DRSC16567	0.03	-0.21			
Nufip	DRSC10397	0.24	0.43			
CG7715	DRSC16301	0.34	0.34			
Fitm	DRSC09772	0.1	0.05			
CDK2AP1	DRSC19800	0.36	0.47			
CG34323	DRSC18916	0.64	0.22			
CG42663	DRSC06158	0.36	0.07			
CG42663	DRSC06404	0.16	-0.75	-0.9	0.42	
CG30268	DRSC21983	0.71	0.14			
PsGEF	DRSC18596	0.27	0.22			
PsGEF	DRSC18600	0.2	0.24			
PsGEF	DRSC18601	0.41	-6.32			
fkh	DRSC16949	0.33	0.42			
Sin1	DRSC05965	0.35	0.37			
CG4009	DRSC15536	0.18	0.26			
Paris	DRSC00451	0.17	0.22			
CG9689	DRSC18440	0.16	0.35			
Dgat2	DRSC06803	0.21	0.32			
CG8517	DRSC07205	0.62	0.31			
CG4278	DRSC02741	0.06	0.2			
IscU	DRSC16572	-0.05	-1.16			
Ir75b	DRSC10189	0.3	0.03			
GLaz	DRSC07431	-0.19	-0.11			
Rab19	DRSC11260	-0.23	-0.1			
CG4338	DRSC15564	0.25	0.23			
TotC	DRSC13449	0.23	0.19			
nerfin-1	DRSC08729	-9.9	0.2			reduced secretion
jing	DRSC04923	0.22	0.19			
jing	DRSC04927	0.19				
jing	DRSC05000	0.33	0.41			
Pdk	DRSC07504	0.42	0.33			
Jon99Cii	DRSC16858	0.16	0.03			
Jon99Cii	DRSC22574	-0.55	0.16			
CG42834	DRSC13234	0.18	-0.09			
Spn43Aa	DRSC06117	0.19	0.33			
pad	DRSC14227	-0.42	-0.01			
CG32459	DRSC11852	0.29	0.33			
CG6106	DRSC19971	0.27	0.54			
MED25	DRSC14483	-6.88	-4.16			reduced secretion

3 entries from above, showing only “z-score, replicate 1”:
CG4278 [DRSC02741] = 0.06
IscU [DRSC16572] = -0.05
Ir75b [DRSC10189] = 0.3
